Out of some 330,000 compounds screened, about 7,700 (2.3%) were called active. This list was built around the results that the source calls inconclusive (neither active nor inactive); the mix of calls is not that of the screen. Calls follow the shape of the dose curve; as a rule, active = well fitted inhibition curve with a large enough effect; inconclusive = small, poorly fitted or top-dose-only effect, or effect the other way; inactive = flat fitted curve, though single readings scatter. Potencies beside an inconclusive call are fits to weak or partial responses and may not hold up.
Test: qHTS screen for small molecules that inhibit ELG1-dependent DNA repair in human embryonic kidney (HEK293T) cells expressing luciferase-tagged ELG1; also: nearly all actives have a fitted effect of over 55% in size
Conditions: HEK293T ELG1-luciferase reporter, luminescence, 16 h, DNA damage induced by 5-fluorouridine; activity change, negative = inhibition: at 46.1 µM (top of the series)
In short: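 Quantitative HTS, concentration-response format. 2,000 cells/well co-treated with 5-fluorouridine and compound, 16 hr in 5% CO2 at 37 °C; ONE-Glo luminescence read after 30 min.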
% is scaled to controls: 0 for no effect and ±100 for the full control effect; potency is read from the fitted curve at half-maximal effect.

SMILES	activity change, negative = inhibition	Potency
COc1ccc(/C=N/NC(=O)c2cccc(Br)c2)cc1CN1CCOCC1	inactive: 0%	
Cc1nc(NS(=O)(=O)c2ccc(Cl)s2)c2c3c(sc2n1)CCCC3		inconclusive: 18.3 µM [inhibitor, single point]
COc1ccc(S(=O)(=O)NCC2CCC(C(=O)NCCCN3CCCC3=O)CC2)cc1 (configuration not stated)		inconclusive: 20.6 µM [activator, single point]
CN(CC(=O)Nc1cccc(F)c1)C(=O)c1cccnc1Sc1ccc(Cl)cc1		inconclusive: 32.6 µM [inhibitor, partial curve, poor fit]
CN(C)CCCn1c(NC(=O)C2CCCCC2)nc2ccccc21		inconclusive: 2.59 µM [activator, partial curve, poor fit]
Cc1ccc(-c2cc(C(=O)Nc3cc(C)on3)no2)cc1		inconclusive: 16.4 µM [activator, single point]
Cc1ccc(/C=C/C(=O)NC2CCS(=O)(=O)C2)cc1 (configuration not stated)		inconclusive: 16.4 µM [activator, partial curve, poor fit]
COC(=O)c1ccc(CSc2nc3ccccc3c(=O)n2-c2ccc(OC)c(OC)c2)o1		inconclusive: 29.1 µM [inhibitor, single point]
O=C(/C=C/c1cccc(O)c1)c1ccc(N2CCOCC2)cc1		inconclusive: 13 µM [activator, partial curve, poor fit]
CCc1cccc(NC(=O)CCC(=O)N2CCSc3ccccc32)c1	inactive: 3.62%	
CC(C)N1CC(COc2ccc(Cl)cc2Cl)OC1=O (configuration not stated)		inconclusive: 18.3 µM [activator, single point]
CCN1CCN(c2c(C=O)c(Cl)nc3ccc(OC)cc23)CC1		inconclusive: 11.2 µM [inhibitor, partial curve, poor fit]
O=C(CCCCCBr)N1CCC(CC2CC(c3cccc(Br)c3)=NO2)(C(=O)NCC2CCCCC2)CC1 (configuration not stated)		inconclusive: 23.1 µM [inhibitor, single point]
O=C(/C=C/c1cccs1)N1CCN(c2ccccc2F)CC1		inconclusive: 29.1 µM [activator, single point]
CCC(=O)Nc1nc2ccccc2n1Cc1ccccc1C		inconclusive: 25.9 µM [inhibitor, partial curve, poor fit]
COc1cccc(S(=O)(=O)N2CCN(C(=O)c3ccco3)CC2)c1		inconclusive: 9.2 µM [inhibitor, partial curve]
COc1cccc(NC(=O)c2ccc(NC(=O)C3CC(=O)OC34CCCCC4)cc2)c1 (configuration not stated)	inactive: 7.27%	
CCOC(=O)C(CC)Sc1nc2c(c(=O)[nH]c(=O)n2C)n1CCc1ccccc1 (configuration not stated)		active: 8.2 µM
COc1ccccc1NC(=O)NC1(C(=O)N2CCCCC2)CCCCC1	inactive: -3.92%	
CCOC(=O)C1=C(c2ccccc2)NC(SCC(=O)Nc2ccccc2C)=C(C#N)C1c1ccco1 (configuration not stated)		inconclusive: 7.31 µM [inhibitor, partial curve]
CCNC(=O)COC(=O)c1[nH]c(C)c(C(=O)OC)c1C		inconclusive: 20.6 µM [activator, partial curve]

SMILES	activity change, negative = inhibition	Potency
Cc1[nH]nc(-c2ccc(O)c(C)c2O)c1Oc1ccccc1		inconclusive: 16.4 µM [inhibitor, partial curve]
COc1cc(C(=O)NC2=NCCS2)ccc1OCc1c(C)noc1C		inconclusive: 16.4 µM [activator, single point]
COc1cc2nc(Cl)nc(N3CCCCC3)c2cc1OC		inconclusive: 29.1 µM [inhibitor, single point]
O=C(NCCc1ccc(Cl)cc1Cl)C1=CC=CN2CCS(=O)(=O)N=C12	inactive: 19.1%	
O=S(=O)(/N=C(/c1ccccc1)N1CCOCC1)c1ccc(F)cc1F		inconclusive: 25.9 µM [activator, partial curve, poor fit]
COc1ccc(-c2oc3ccccc3c2C#CC(C)(C)O)cc1		active: 13 µM
CCC(=O)Nc1cc(-c2nn(C)c(=O)c3ccccc23)ccc1OC		inconclusive: 5.17 µM [activator, single point]
CCCOc1cccc(-c2cc(C(=O)N/N=C/c3cccnc3)c3ccccc3n2)c1		active: 16.4 µM
CCN(CC)S(=O)(=O)c1ccc2c3c(cccc13)C(=O)S2		inconclusive: 18.4 µM [inhibitor, single point]
COC(=O)c1ccc(NC(=O)COC(=O)COc2cccc3c2OC(C)(C)C3)cc1		inconclusive: 18.3 µM [activator, single point]
O=C(CCN1C(=O)C2CC=CCC2C1=O)Nc1nc(-c2ccc(F)c(F)c2)cs1 (configuration not stated)		inconclusive: 29.1 µM [inhibitor, single point]
O=C(CSC1=NCCS1)NC(c1ccccc1)c1ccccc1	inactive: -9.54%	
CC(=O)c1ccc(NC(=S)N2CCCCCC2)cc1		inconclusive: 20.6 µM [activator, partial curve]
COCC(=O)Nc1cc(C(=O)NCCc2ccccc2)ccc1Cl		inconclusive: 14.6 µM [activator, partial curve]
C=CCOc1c(Br)cc(/C=N/Nc2ccc(C(=O)O)cc2)cc1OCC		inconclusive: 6.51 µM [activator, partial curve]
O=C(Nc1ccn(Cc2ccccc2)n1)c1n[nH]c([N+](=O)[O-])c1Cl		inconclusive: 2.31 µM [activator, partial curve]
CC(C)(C)OC(=O)N[C@@H](Cc1ccccc1)C(=O)NCC1CCC(C(=O)O)CC1 (some centres not stated)		inconclusive: 14.6 µM [activator, partial curve]
CCCOc1ccc(-c2cc(C(=O)NCC3CCCO3)c3ccccc3n2)cc1 (configuration not stated)		inconclusive: 29.1 µM [inhibitor, single point]
Cc1ccc(C(C(=O)NC2CCCC2)N(C(=O)c2csnn2)c2ccccc2)o1 (configuration not stated)	inactive: 2.45%	
Cc1cccc(-c2noc(CN(C(=O)C34CC5CC(CC(C5)C3)C4)C(C)C)n2)c1	inactive: 4.63%	
Cc1ccc(NC(=O)C2Cc3ccccc3O/C2=N\O)cc1C (configuration not stated)		inconclusive: 23.1 µM [activator, partial curve]

Some of these compounds in order of length of the SMILES, ascending.
SMILES	activity change, negative = inhibition	Potency
CC(=O)c1ccc(NC(=S)N2CCCCCC2)cc1		inconclusive: 20.6 µM [activator, partial curve]
COCC(=O)Nc1cc(C(=O)NCCc2ccccc2)ccc1Cl		inconclusive: 14.6 µM [activator, partial curve]
O=S(=O)(/N=C(/c1ccccc1)N1CCOCC1)c1ccc(F)cc1F		inconclusive: 25.9 µM [activator, partial curve, poor fit]
